Measured values published in patent publication US7473700B2, “1,2,4-triazole derivatives, processes for the preparation thereof, and pharmaceutical compositions containing the same” (CJ Corporation, priority 2002, dated 2009).
Some entries share one result that the patent states for a list of compounds. For at least one compound, name, drawing or mass did not settle the structure.

What follows are molecules tested against T1, COX-2 (Mus musculus, UniProt Q05769) (assay: Assay for the COX-2 inhibitory activity using RAW 264.7 cell line (PGE2 inhibition)). Conditions: COX-2 at 10 nM versus COX-1 at 1 μM, compared with the reference Valdecoxib.
T1 construct: host or cells: RAW 264.7 cells, aspirin-pretreated, then induced with interferon gamma and LPS
T1 sequence (Q05769 18-604): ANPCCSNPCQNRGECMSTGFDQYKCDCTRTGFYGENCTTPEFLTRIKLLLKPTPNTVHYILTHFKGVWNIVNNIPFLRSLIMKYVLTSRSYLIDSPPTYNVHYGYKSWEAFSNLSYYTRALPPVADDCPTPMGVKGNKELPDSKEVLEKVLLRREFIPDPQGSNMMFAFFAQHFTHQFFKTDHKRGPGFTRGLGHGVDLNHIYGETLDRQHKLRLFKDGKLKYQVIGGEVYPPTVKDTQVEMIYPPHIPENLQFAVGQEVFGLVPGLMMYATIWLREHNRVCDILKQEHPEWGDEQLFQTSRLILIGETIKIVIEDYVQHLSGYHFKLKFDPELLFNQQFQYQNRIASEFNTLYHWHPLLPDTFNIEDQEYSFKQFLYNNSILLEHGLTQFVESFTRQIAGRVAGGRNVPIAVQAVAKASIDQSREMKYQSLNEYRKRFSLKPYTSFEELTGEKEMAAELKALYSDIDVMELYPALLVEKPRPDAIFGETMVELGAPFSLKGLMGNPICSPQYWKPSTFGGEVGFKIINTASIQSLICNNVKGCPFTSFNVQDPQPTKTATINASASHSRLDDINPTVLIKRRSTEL
Format: cell-based
Procedure: Each well was treated with 250 μM of aspirin and incubated at 37° C. for 2 hours. After the culture media were replaced with new culture media, the new culture media were treated with a test compound (10 nM) and incubated for 30 minutes. Then, each well was treated with interferon γ (100 units/ml) and lipopolysaccharide (LPS, 100 ng/ml) and incubated for 18 hours. The culture media were transferred to other test tubes. The concentration of PGE2 was quantified by means of the EIA kit (Cayman Chemicals).
The percentages of the COX inhibition were calculated according to the following equation: % Inhibition=(concentration of PGE2 in test compound-untreated sample−concentration of PGE2 in test compound-treated sample)/(concentration of PGE2 in test compound-untreated sample)×100

| Structure (SMILES) | inhibition (%) ratios of COX-2 to COX-1 |
| --- | --- |
| COc1ccc(-c2nc(OC(C)C)nn2-c2ccc(S(N)(=O)=O)cc2)cc1 [Example 46, 4-[3-isopropoxy-5-(4-methoxyphenyl)-1,2,4-triazole-1-yl]-benzenesulfonamide] | significantly higher than that in the reference, Valdecoxib |
| CC(C)Oc1nc(-c2ccccc2)n(-c2ccc(S(N)(=O)=O)cc2)n1 [Example 47, 4-(3-isopropoxy-5-phenyl-1,2,4-triazole-1-yl)-benzenesulfonamide] | significantly higher than that in the reference, Valdecoxib |
| CC(C)Oc1nc(-c2ccc(F)cc2)n(-c2ccc(S(N)(=O)=O)cc2)n1 [Example 48, 4-[3-isopropoxy-5-(4-fluorophenyl)-1,2,4-triazole-1-yl]-benzenesulfonamide] | significantly higher than that in the reference, Valdecoxib |
| CC(C)Sc1nc(-c2ccccc2)n(-c2ccc(S(N)(=O)=O)cc2)n1 [Example 49, 4-(3-isopropylthio-5-phenyl-1,2,4-triazole-1-yl)-benzenesulfonamide] | significantly higher than that in the reference, Valdecoxib |
| COc1ccc(-c2nc(OCc3ccccc3)nn2-c2ccc(S(N)(=O)=O)cc2)cc1F [Example 50, 4-[3-benzyloxy-5-(3-fluoro-4-methoxyphenyl)-1,2,4-triazole-1-yl]-benzenesulfonamide] | significantly higher than that in the reference, Valdecoxib |
| NS(=O)(=O)c1ccc(-n2nc(OCc3ccccc3)nc2-c2ccccc2)cc1 [Example 51, 4-(3-benzyloxy-5-phenyl-1,2,4-triazole-1-yl)-benzenesulfonamide] | significantly higher than that in the reference, Valdecoxib |
| C=CCOc1nc(-c2ccc(OC)cc2)n(-c2ccc(S(N)(=O)=O)cc2)n1 [Example 52, 4-[3-allyloxy-5-(4-methoxyphenyl)-1,2,4-triazole-1-yl]-benzenesulfonamide] | significantly higher than that in the reference, Valdecoxib |
| C=CCOc1nc(-c2ccccc2)n(-c2ccc(S(N)(=O)=O)cc2)n1 [Example 53, 4-(3-allyloxy-5-phenyl-1,2,4-triazole-1-yl)-benzenesulfonamide] | significantly higher than that in the reference, Valdecoxib |
| C=CCOc1nc(-c2ccc(F)cc2)n(-c2ccc(S(N)(=O)=O)cc2)n1 [Example 54, 4-[3-allyloxy-5-(4-fluorophenyl)-1,2,4-triazole-1-yl]-benzenesulfonamide] | significantly higher than that in the reference, Valdecoxib |
| COc1ccc(-c2nc(OCC(F)(F)F)nn2-c2ccc(S(N)(=O)=O)cc2)cc1 [Example 55, 4-[3-(2,2,2-trifluoroethoxy)-5-(4-methoxyphenyl)-1,2,4-triazole-1-yl]-benzenesulfonamide] | significantly higher than that in the reference, Valdecoxib |
| NS(=O)(=O)c1ccc(-n2nc(OCC(F)(F)F)nc2-c2ccc(F)cc2)cc1 [Example 56, 4-[3-(2,2,2-trifluoroethoxy)-5-(4-fluorophenyl)-1,2,4-triazole-1-yl]-benzenesulfonamide] | significantly higher than that in the reference, Valdecoxib |
| NS(=O)(=O)c1ccc(-n2nc(OCCCl)nc2-c2ccccc2)cc1 [Example 57, 4-[3-(2-chloroethoxy)-5-phenyl-1,2,4-triazole-1-yl]-benzenesulfonamide] | significantly higher than that in the reference, Valdecoxib |
| NS(=O)(=O)c1ccc(-n2nc(OC3CC3)nc2-c2ccccc2)cc1 [Example 58, 4-[3-cyclopropoxy-5-phenyl-1,2,4-triazole-1-yl]-benzenesulfonamide] | significantly higher than that in the reference, Valdecoxib |
| COc1ccc(-c2nc(OC)nn2-c2ccc(S(C)(=O)=O)cc2)cc1 [Example 59, 1-(4-methanesulfonylphenyl)-3-methoxy-5-(4-methoxylphenyl)-1H-1,2,4-triazole] | significantly higher than that in the reference, Valdecoxib |
| COc1nc(-c2ccccc2)n(-c2ccc(S(C)(=O)=O)cc2)n1 [Example 60, 1-(4-methanesulfonylphenyl)-3-methoxy-5-phenyl-1H-1,2,4-triazole] | significantly higher than that in the reference, Valdecoxib |
| CCOc1nc(-c2ccc(OC)cc2)n(-c2ccc(S(C)(=O)=O)cc2)n1 [Example 61, 1-(4-methanesulfonylphenyl)-3-ethoxy-5-(4-methoxylphenyl)-1H-1,2,4-triazole] | significantly higher than that in the reference, Valdecoxib |
| CCOc1nc(-c2ccccc2)n(-c2ccc(S(C)(=O)=O)cc2)n1 [Example 62, 1-(4-methanesulfonylphenyl)-3-ethoxy-5-phenyl-1H-1,2,4-triazole] | significantly higher than that in the reference, Valdecoxib |
| COc1ccc(-c2nc(OC(C)C)nn2-c2ccc(S(C)(=O)=O)cc2)cc1 [Example 63, 1-(4-methanesulfonylphenyl)-3-isopropoxy-5-(4-methoxyphenyl)-1H-1,2,4-triazole] | significantly higher than that in the reference, Valdecoxib |
| CC(C)Oc1nc(-c2ccccc2)n(-c2ccc(S(C)(=O)=O)cc2)n1 [Example 64, 1-(4-methanesulfonylphenyl)-3-isopropoxy-5-phenyl-1H-1,2,4-triazole] | significantly higher than that in the reference, Valdecoxib |
